{
  "source": "paper PMC11540850",
  "target": "SKI3 (subunit of the SKI238 complexes) (human) (UniProt Q6PGP7)",
  "assay": "co-purification (nickel affinity and ion exchange); SKI2, 10xHis-SKI3 and SKI8 co-expressed from one plasmid in Hi5 insect cells; complex purified through the His tag on SKI3",
  "note": "No constants are given. Whether binding was seen depends on the method and setting. Some results given as binding are weak or reduced against the parent protein; the word gives no strength.",
  "data": [
    {"substance": "SKI2 helicase (subunit of the wild-type SKI238 complex) (from UniProt Q15477 1-1246) (enzyme)", "values": [
      {"measurement": "binding", "result": "binds"}
    ]}
  ]
}
